Literature values in US20260053782A1, “TREATMENT REGIMENS FOR PARKINSON'S DISEASE” (BIAL - PORTELA & CA, S.A., priority 2022, published 2026).
At least one compound was matched to its structure with a doubt left.

System: patients suffering from early idiopathic Parkinson's disease
Details: addition of entacapone vs levodopa-only therapy; levodopa-naïve patients; cited from earlier work

SMILES: CCN(CC)C(=O)/C(C#N)=C/c1cc(O)c(O)c([N+](=O)[O-])c1 [entacapone]
- time to onset of motor complications: shorter time to onset of motor complications
